PubChem BioAssay AID743121 – NCATS | 2013
Aim: 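Knock-downs that sensitise breast cancer cells to camptothecin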 (primary screen). Cell system: MDA-MB-231 cells, a human breast cancer line. Reagent: single siRNA against human genes, 20 nM siRNA (0.8 pmol per well). Timing: 120 h (drug added 48 h after transfection, read 72 h later). Challenge: camptothecin 20 nM (about EC30) for 72 h; vehicle 0.1% DMSO in parallel plates. Measurement: 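CellTiter-Glo ATP signal, scaled to control siRNA as percent viability; sensitisation given as log2 of untreated divided by camptothecin-treated viability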. Reading the numbers: log2 vehicle/camptothecin viability: higher = stronger sensitisation to camptothecin. Call rule: 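Active genes have an RSA gene-level p-value below 0.001, computed from the ratios of their separate siRNAs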.
In all, the deposit lists about 26,000 reagents; below is a part drawn at random. In the full data, 167 (0.63%) were called active. 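Calls are per gene from RSA p-values that are not deposited; an individual active-marked siRNA can sensitise only weakly.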 Reagents against one gene are numbered here. Not all columns of the deposit are shown.

log2 vehicle/camptothecin viability, by gene symbol and reagent
IL31RA: #1 0.034 inactive; #2 -0.187 inactive; #3 -0.605 inactive; #4 -0.018 inactive
VN1R2: #1 -0.25 inactive; #2 -0.65 inactive; #3 -0.564 inactive; #4 -0.28 inactive
TRIM27: #1 0.516 inactive; #2 -0.164 inactive; #3 -0.304 inactive; #4 -0.0988 inactive
NPY2R: #1 -0.636 inactive; #2 -0.222 inactive; #3 -0.131 inactive; #4 -0.342 inactive
MYL7: #1 0.311 inactive; #2 -0.695 inactive; #3 -0.0354 inactive; #4 -0.17 inactive
C17orf75: #1 0.098 inactive; #2 -0.107 inactive; #3 -0.493 inactive; #4 0.277 inactive
HDAC3: #1 -0.206 inactive; #2 -0.0507 inactive; #3 0.381 inactive; #4 -0.186 inactive
G3BP2: #1 -0.631 inactive; #2 0.0555 inactive; #3 0.236 inactive; #4 -0.197 inactive
TAF3: #1 -0.192 inactive; #2 -0.501 inactive; #3 0.141 inactive
TTN: #1 -0.333 inactive; #2 -0.0882 inactive; #3 0.37 inactive; #4 -0.054 inactive
FGF3: #1 0.295 inactive; #2 0.141 inactive; #3 0.103 inactive
HKDC1: #1 -0.0796 inactive; #2 0.259 inactive; #3 -0.195 inactive; #4 -0.352 inactive
PLXNA2: #1 -0.33 inactive; #2 -0.353 inactive; #3 -0.312 inactive; #4 0.0938 inactive
PDK4: #1 -0.283 inactive; #2 -0.395 inactive; #3 -0.727 inactive; #4 -0.21 inactive
HHLA1: #1 0.0811 inactive; #2 -0.419 inactive; #3 0.107 inactive
BCL2L11: #1 0.011 inactive; #2 -0.143 inactive; #3 0.0802 inactive; #4 -0.125 inactive; #5 -0.491 inactive; #6 -0.0426 inactive; #7 -0.166 inactive; #8 0.362 inactive
RETN: #1 -0.172 inactive; #2 0.355 inactive; #3 -0.152 inactive; #4 -0.313 inactive
FBXO10: #1 -0.534 inactive; #2 -0.413 inactive; #3 0.382 inactive; #4 -0.442 inactive
MS4A6A: #1 -0.102 inactive; #2 0.392 inactive; #3 0.333 inactive
EPHB1: #1 -0.133 inactive; #2 -0.511 inactive; #3 0.0437 inactive; #4 1.32 inactive
GPR61: #1 -0.178 inactive; #2 0.212 inactive; #3 -0.00223 inactive; #4 0.418 inactive
ENDOG: #1 -0.124 inactive; #2 0.484 inactive; #3 -0.434 inactive; #4 0.828 inactive
